Patent US9266878B2, “Phosphatidylinositol 3-kinase inhibitors” (Gilead Calistoga LLC, priority 2012, dated 2016)
The structures given here were assigned with low confidence; some may be wrong.

Protein sequences, listed by entry. Tags and fused reporters are not part of them. Lines headed by an entry give the natural chain unless they say otherwise; changes in a name come on top.
UniProt O00329, whole entry: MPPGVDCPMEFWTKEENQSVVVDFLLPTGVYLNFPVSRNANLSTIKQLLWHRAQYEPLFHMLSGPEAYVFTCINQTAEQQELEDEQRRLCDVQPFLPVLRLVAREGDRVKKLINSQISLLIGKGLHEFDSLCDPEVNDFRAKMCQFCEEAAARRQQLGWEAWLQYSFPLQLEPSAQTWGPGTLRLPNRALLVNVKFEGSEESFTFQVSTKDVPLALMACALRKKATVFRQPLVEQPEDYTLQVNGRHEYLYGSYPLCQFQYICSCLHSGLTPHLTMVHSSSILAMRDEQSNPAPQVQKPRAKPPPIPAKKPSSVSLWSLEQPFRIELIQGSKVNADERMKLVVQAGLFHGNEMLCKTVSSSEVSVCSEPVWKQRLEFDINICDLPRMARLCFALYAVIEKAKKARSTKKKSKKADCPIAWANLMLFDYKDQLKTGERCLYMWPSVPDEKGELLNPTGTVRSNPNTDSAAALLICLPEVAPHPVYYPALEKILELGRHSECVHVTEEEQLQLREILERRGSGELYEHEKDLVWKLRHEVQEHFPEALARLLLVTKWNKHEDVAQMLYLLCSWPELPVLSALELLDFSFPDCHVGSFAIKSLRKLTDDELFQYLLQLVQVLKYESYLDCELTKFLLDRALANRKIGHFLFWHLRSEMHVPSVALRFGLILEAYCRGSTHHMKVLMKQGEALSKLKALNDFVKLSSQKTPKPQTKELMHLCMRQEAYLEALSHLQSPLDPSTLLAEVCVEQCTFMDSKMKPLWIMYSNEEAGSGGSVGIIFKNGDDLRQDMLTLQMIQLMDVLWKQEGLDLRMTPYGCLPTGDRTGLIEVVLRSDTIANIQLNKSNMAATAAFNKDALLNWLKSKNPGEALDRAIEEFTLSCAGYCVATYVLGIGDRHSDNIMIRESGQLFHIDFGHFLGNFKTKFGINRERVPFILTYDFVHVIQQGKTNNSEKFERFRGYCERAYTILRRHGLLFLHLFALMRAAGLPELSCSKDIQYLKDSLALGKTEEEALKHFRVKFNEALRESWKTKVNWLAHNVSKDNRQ
UniProt P42336, whole entry: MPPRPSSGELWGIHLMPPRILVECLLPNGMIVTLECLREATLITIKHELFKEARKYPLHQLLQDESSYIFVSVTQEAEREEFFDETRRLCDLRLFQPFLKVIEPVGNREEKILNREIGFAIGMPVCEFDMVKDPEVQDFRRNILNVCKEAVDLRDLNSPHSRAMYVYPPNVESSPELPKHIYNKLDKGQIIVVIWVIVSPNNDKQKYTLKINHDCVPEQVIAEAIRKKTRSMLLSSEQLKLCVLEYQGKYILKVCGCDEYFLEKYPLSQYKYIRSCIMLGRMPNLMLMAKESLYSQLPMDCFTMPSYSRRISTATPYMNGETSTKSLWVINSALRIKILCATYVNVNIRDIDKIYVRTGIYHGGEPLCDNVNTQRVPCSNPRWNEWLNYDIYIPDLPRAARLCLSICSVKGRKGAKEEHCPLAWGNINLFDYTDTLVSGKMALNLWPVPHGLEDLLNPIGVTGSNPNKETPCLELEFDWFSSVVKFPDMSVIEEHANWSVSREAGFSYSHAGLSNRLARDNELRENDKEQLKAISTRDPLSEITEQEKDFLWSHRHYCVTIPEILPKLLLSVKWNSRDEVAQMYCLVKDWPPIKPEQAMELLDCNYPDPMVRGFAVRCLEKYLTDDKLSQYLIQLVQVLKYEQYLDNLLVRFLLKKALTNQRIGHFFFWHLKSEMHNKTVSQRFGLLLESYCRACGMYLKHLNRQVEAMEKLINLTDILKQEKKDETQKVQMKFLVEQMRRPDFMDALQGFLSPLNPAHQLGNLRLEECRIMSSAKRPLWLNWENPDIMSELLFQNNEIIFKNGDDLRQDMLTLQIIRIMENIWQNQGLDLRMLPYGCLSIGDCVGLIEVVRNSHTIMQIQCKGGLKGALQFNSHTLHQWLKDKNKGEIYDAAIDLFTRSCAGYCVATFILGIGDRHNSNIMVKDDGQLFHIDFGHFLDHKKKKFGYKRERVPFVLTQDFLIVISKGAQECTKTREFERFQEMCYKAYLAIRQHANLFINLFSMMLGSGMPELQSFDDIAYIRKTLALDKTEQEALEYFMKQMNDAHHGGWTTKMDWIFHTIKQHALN
UniProt P48736, whole entry: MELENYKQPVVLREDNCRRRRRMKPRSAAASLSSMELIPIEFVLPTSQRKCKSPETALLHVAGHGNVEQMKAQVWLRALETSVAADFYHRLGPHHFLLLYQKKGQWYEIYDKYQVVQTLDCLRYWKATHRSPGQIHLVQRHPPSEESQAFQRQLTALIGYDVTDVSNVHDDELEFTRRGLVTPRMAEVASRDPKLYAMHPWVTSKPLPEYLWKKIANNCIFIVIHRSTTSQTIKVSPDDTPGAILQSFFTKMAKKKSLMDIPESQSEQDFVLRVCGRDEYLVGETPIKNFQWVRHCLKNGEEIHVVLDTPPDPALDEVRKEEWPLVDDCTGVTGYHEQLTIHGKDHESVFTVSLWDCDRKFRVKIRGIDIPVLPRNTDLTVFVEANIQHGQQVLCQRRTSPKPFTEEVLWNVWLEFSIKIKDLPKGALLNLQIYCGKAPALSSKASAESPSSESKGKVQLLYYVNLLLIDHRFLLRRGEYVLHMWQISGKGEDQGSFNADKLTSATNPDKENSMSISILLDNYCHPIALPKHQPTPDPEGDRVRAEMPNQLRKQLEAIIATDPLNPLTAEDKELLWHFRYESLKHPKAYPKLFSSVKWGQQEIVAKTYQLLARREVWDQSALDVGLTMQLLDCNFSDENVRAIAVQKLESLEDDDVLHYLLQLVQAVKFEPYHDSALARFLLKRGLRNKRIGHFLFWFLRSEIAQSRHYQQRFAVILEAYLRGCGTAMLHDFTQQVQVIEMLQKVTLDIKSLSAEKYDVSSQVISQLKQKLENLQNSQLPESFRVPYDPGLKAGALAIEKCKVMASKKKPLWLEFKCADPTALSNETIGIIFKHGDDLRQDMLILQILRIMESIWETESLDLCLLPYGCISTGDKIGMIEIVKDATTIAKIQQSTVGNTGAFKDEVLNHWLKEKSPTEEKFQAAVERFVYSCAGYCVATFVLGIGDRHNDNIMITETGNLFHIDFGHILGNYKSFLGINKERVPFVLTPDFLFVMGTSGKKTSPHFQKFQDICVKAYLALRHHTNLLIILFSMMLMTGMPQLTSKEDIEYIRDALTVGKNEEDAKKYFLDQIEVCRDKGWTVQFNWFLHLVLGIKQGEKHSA
UniProt P42338, whole entry: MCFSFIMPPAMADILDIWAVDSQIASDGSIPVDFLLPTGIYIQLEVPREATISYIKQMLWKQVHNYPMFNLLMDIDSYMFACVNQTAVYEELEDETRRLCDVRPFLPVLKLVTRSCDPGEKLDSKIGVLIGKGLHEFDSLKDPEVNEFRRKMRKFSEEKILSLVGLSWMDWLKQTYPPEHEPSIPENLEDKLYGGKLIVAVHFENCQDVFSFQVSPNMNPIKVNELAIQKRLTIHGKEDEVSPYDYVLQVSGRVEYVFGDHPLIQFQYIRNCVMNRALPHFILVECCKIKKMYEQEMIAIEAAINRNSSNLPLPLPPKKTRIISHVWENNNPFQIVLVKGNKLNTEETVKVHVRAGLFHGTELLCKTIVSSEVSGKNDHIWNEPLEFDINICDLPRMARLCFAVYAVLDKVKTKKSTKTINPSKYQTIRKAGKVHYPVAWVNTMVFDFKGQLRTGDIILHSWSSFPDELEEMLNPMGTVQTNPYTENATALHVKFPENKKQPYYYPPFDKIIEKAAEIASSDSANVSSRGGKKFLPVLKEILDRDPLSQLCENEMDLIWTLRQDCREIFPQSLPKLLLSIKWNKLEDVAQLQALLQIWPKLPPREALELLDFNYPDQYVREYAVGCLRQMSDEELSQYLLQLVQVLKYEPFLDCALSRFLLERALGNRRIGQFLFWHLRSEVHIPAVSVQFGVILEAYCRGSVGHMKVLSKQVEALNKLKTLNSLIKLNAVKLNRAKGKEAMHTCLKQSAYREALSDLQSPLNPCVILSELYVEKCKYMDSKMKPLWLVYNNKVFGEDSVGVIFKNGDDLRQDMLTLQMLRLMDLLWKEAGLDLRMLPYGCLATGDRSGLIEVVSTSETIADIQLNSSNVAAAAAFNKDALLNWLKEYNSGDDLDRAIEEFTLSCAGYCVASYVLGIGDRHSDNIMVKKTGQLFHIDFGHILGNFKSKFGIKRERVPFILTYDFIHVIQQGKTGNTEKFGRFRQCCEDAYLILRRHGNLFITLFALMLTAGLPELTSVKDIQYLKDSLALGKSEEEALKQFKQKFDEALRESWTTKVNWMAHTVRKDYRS
UniProt P27986, whole entry partner: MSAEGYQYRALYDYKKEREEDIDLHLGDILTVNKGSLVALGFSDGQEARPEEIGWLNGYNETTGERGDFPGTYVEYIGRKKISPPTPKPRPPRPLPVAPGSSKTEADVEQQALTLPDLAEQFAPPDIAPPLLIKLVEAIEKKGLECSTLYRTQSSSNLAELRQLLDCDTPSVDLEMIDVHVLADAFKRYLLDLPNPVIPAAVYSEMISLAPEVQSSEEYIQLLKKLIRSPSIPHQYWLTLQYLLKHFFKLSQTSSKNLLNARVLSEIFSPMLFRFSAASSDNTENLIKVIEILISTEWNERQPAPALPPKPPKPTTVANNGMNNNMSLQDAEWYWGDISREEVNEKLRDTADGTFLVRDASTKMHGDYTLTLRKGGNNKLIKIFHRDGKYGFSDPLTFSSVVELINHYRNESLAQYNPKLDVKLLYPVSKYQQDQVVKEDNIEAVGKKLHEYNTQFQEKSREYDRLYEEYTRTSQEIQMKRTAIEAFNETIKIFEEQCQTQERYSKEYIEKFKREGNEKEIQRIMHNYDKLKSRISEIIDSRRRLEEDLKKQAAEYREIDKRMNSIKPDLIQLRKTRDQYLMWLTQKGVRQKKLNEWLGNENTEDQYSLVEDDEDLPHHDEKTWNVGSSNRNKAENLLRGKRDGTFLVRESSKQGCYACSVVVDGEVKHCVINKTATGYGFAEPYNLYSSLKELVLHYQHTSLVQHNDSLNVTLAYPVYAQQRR
UniProt Q8WYR1, whole entry partner: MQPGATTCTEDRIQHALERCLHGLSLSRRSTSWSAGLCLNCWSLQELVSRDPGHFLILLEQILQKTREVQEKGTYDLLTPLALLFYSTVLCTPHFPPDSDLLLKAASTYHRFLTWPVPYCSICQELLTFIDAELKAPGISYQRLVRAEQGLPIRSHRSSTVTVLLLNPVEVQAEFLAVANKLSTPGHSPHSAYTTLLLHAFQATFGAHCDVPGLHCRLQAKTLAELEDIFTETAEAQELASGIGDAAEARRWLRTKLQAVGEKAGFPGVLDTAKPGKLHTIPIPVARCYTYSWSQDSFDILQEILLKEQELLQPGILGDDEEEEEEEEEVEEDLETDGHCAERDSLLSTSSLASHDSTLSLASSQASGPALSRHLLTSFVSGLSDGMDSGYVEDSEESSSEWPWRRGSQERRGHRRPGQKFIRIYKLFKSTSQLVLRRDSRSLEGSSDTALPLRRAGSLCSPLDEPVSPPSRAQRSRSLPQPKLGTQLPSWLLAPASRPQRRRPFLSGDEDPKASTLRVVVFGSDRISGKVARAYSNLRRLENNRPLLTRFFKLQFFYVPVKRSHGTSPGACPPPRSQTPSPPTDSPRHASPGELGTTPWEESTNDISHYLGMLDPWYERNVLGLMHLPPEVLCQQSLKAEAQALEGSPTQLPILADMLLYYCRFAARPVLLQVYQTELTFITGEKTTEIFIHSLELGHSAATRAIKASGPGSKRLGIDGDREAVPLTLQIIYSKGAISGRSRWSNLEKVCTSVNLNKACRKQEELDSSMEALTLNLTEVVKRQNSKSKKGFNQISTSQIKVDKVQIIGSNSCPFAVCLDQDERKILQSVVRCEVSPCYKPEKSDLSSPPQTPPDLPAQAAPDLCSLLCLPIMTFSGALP

Columns and labels:
Experiment in all cases: Enzymatic activity of PI3K isoforms, TR-FRET assay (PIP3 formation)
PI3Kδ = PI3Kδ (Homo sapiens (Human), UniProt O00329); details: read-out: IC50-PIP-δ, bound given in nM
PI3Kα = PI3Kα (Homo sapiens (Human), UniProt P42336); details: read-out: IC50-PIP-α, bound given in uM
PI3Kγ = PI3Kγ (Homo sapiens (Human), UniProt P48736); details: read-out: IC50-PIP-γ, bound given in uM
PI3Kβ = PI3Kβ (Homo sapiens (Human), UniProt P42338); details: read-out: IC50-PIP-β, bound given in uM

IC50 (PI3Kδ): < 100 nM
IC50 (PI3Kα): > 1 µM
IC50 (PI3Kγ): > 1 µM
IC50 (PI3Kβ): > 1 µM
SMILES: C[C@@H](Nc1ncnc(N)c1C#Cc1ccc(F)cn1)c1nc2cccc(Cl)c2c(=O)n1-c1cc(F)cc(F)c1
